PubChem BioAssay AID1259299 – Sanger Institute, 2017

Test: 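Essential genes and drug-synergistic partners among kinases and colorectal mutation genes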 (primary screen)
Cells: human CAR1 colorectal cancer cells
Reagents: siRNA pool against human genes
Challenge: anchor drug BYL719 1 µM, cetuximab 5 µg/ml or trametinib 10 nM, or DMSO vehicle alone; exposure length not given
Read-out: 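Mean replicate viability versus non-targeting controls, turned into robust z-scores, plus drug synergy scores for BYL719, cetuximab and trametinib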
Direction: viability robust z-score, knock-down alone and viability, knock-down alone (DMSO): higher = more viable cells; synergy score with BYL719 and synergy score with cetuximab and synergy score with trametinib: higher = stronger synergy with drug (synthetic lethal)
Call rule: 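Essential when viability robust z-score with knock-down alone (DMSO) is below -3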
Calls: active = essential (knock-down alone); inactive = no change
Shown is a random part of 794 reagents. 9 of them (1.1%) count as active. 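Calls rest on knock-down alone; synergy scores play no part in calls, and no gene passed the synergy cut.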 No viability above 1 is reported: the scale is capped. Not stated in the record: the amount of reagent, the time to read-out.

no.	gene knocked down	viability robust z-score, knock-down alone	viability, knock-down alone (DMSO) (fraction of control)	synergy score with BYL719	synergy score with cetuximab	synergy score with trametinib	Outcome
1	MOS	-0.202	0.908	-0.0612	-0.0411	-0.0302	inactive
2	CLSPN	0.789	1	0.0392	0.0317	0.0804	inactive
3	PGK1	0.73	0.995	-0.139	-0.0781	0.071	inactive
4	ADCK2	0.211	0.947	-0.0289	-0.0497	0.0121	inactive
5	MAST4	0.789	1	-0.192	-0.0541	-0.0534	inactive
6	PANK2	0.789	1	-0.0193	0.0228	0.0738	inactive
7	PRKY	-1.29	0.808	-0.184	-0.246	-0.135	inactive
8	PGK2	-1.3	0.807	-0.136	-0.167	-0.0354	inactive
9	HK2	-0.471	0.884	-0.158	-0.0941	-0.103	inactive
10	BPTF	-1.58	0.781	-0.0552	-0.0112	-0.0162	inactive
11	MELK	0.789	1	-0.109	0.0326	-0.159	inactive
12	PINK1	0.158	0.942	0.0275	0.0114	0.0324	inactive
13	PAK2	-0.232	0.906	-0.0722	-0.0805	0.000388	inactive
14	ITK	-2.29	0.715	-0.324	-0.242	-0.235	inactive
15	PANK3	0.789	1	-0.173	-0.0588	-0.0754	inactive
16	PLK2	0.789	1	-0.119	-0.0349	-0.109	inactive
17	PNCK	0.789	1	-0.0269	-0.073	-0.138	inactive
18	MAP4K3	0.396	0.964	-0.112	-0.017	0.0531	inactive
19	MAP4K4	0.789	1	-0.161	-0.073	-0.058	inactive
20	PAPSS1	0.789	1	-0.122	-0.073	-0.177	inactive

2 entries from above, ordered by “synergy score with trametinib”, lowest first:
gene knocked down	viability robust z-score, knock-down alone	viability, knock-down alone (DMSO) (fraction of control)	synergy score with BYL719	synergy score with cetuximab	synergy score with trametinib	Outcome
MAP4K4	0.789	1	-0.161	-0.073	-0.058	inactive
MAP4K3	0.396	0.964	-0.112	-0.017	0.0531	inactive
